# Experimental data as given in PubChem BioAssay AID540275 (National Center for Advancing Translational Sciences (NCATS), 2011).
# The chains behind the UniProt entries cited, without tags or fusion partners.
# UniProt Q8NER1, whole entry, looked up: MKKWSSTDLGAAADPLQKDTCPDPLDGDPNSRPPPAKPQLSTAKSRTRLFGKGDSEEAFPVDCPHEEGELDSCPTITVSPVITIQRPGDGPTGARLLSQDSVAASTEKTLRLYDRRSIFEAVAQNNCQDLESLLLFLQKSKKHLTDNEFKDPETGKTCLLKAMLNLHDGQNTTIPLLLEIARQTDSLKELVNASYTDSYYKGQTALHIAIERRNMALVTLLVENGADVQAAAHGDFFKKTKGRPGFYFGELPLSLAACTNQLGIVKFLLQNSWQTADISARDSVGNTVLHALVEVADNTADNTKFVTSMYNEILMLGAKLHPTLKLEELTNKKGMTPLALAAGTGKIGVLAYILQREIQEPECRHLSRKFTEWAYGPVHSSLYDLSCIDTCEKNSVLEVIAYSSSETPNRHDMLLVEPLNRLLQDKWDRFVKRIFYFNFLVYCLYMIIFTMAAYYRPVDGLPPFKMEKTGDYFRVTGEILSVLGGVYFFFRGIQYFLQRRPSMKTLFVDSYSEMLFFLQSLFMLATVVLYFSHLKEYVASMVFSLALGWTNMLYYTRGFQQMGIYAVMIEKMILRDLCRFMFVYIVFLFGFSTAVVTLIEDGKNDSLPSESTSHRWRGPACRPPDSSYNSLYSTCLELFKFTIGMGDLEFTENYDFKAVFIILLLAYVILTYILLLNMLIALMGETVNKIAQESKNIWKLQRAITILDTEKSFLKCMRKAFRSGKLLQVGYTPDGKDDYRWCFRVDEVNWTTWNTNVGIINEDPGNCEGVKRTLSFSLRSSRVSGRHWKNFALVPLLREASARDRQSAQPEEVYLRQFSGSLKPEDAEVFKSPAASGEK
# The whole screen tested about 320,000 compounds, of which about 620 (0.19%) were called active. This list was built around the results that the source calls inconclusive (neither active nor inactive); the mix of calls is not that of the screen. No stated cut-off is given here; in the data, active means activation above about 80%; inconclusive means between about 30% and that limit; inactive means weaker than that.
# Molecular target: Transient receptor potential cation channel subfamily V member 1 (Homo sapiens) (UniProt Q8NER1)
# Experiment: HTS Assay for Compounds that Act as Agonists of the Vanilloid Receptor 1; further: 0% is about no effect
# Details: TRPV1-expressing cells, Fluo-8 calcium influx, agonist mode; at 8.33 µM, hits give high values
# Procedure, shortened: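 TRPV1-expressing cells were cultured overnight at 35.5C and loaded with Fluo-8 calcium dye for 40 to 90 min at room temperature. After a 10 s baseline, compound was added and calcium influx was read kinetically for 3 min (ex 480/em 520 nm).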
row,Compound,activation
1,Cc1nnc(-c2ccco2)c2cn(-c3cccc(Br)c3)nc12,inconclusive: 67.5%
2,O=C(OCc1ccccn1)c1ccc(COc2ccccc2Cl)o1,inconclusive: 33.5%
3,CCN(CC)C(=O)COc1ccc2oc(C)c(C(=O)OC(C)C)c2c1,inconclusive: 35.7%
4,O=C(COC(=O)c1ccc(NS(=O)(=O)c2cccs2)cc1)NCc1ccco1,inactive: 3.64%
5,C=CCn1c(SCC(=O)NC(N)=O)nnc1-c1cc2c(s1)CCC(CC)C2 (stereo not given),inconclusive: 35.5%
6,O=C(CSc1nc2ccccc2c(=O)n1CCC(=O)N1CCCCC1)NCc1ccccc1,inactive: 3.14%
7,Cn1c(=O)c(C(=O)COC(=O)c2cc(-c3ccco3)nc3ccccc23)c(N)n(CC2CC2)c1=O,inactive: -2.31%
8,O=C1C=C(N(CCO)Cc2ccccc2)c2ccccc2C1=O,inactive: 0.211%
9,CCOc1ccc(CCNC(=O)COC(=O)c2ccc(Br)o2)cc1OCC,inactive: -3.65%
10,Cc1ccc(CNC(=O)C23CN(Cc4ccccc4)CC2C(c2cccc([N+](=O)[O-])c2)=NO3)cc1 (stereo not given),inactive: 5.08%
11,N#C/C(=C\c1c(N2CCC(C(N)=O)CC2)nc2ccccn2c1=O)C(=O)NC1CCCCC1,inactive: 1.79%
12,O=C(NCC1CCCCC1)c1ccc(Br)o1,inconclusive: 39.3%
13,Cc1cc(Nc2ccc(Cl)cc2)n(-c2ccccc2)n1,inconclusive: 37.4%
14,CC1CCN(C(=O)CCCOc2ccc(Cl)cc2)CC1,active: 80.4%
15,O=C(Nc1cc(N2CCCCC2)ncn1)c1ccccc1,inconclusive: 38.8%
16,O=C(NCCO)C(=O)c1c(-c2ccccc2)cc2ccccn12,inactive: -3.57%
17,COc1ccc(Cl)cc1NC(=O)C(=O)NCc1ccncc1,inconclusive: 32.7%
18,Cc1cccc(OCC(=O)Nc2ccc3oc(=O)ccc3c2)c1,inconclusive: 40.1%
19,CC(C)Sc1nnc(CNC(=O)C23CC4CC(CC(C4)C2)C3)n1Cc1ccccc1,inconclusive: 35.9%
20,c1ccc2c(c1)OCC(CNc1ncnc3nc[nH]c13)O2 (stereo not given),inconclusive: 65.2%
21,CCOC(=O)CSc1nc2ccc(C)cc2cc1C#N,inconclusive: 45.5%
22,COc1ccc(S(=O)(=O)N2CCCC(C(=O)N3CCOCC3)C2)cc1Cl (stereo not given),inconclusive: 39.1%
23,N#CC(C#N)=C/C=C(\Nc1ccc(Cl)cc1)c1ccc(Cl)cc1,inconclusive: 47.6%
24,CCN(CC)Cc1c(O)ccc2c(-c3ccccc3)cc(=O)oc12,inactive: -1.65%
25,O=C(Nc1ccccc1)c1ccc(-c2ccccc2C(F)(F)F)o1,inconclusive: 57.5%

# Taken from above:
# CCN(CC)C(=O)COc1ccc2oc(C)c(C(=O)OC(C)C)c2c1 – activation: inconclusive: 35.7%
# N#CC(C#N)=C/C=C(\Nc1ccc(Cl)cc1)c1ccc(Cl)cc1 – activation: inconclusive: 47.6%
